In the supplement of paper PMC9877034:
Where a name gives a salt, the structure may show the parent alone. The full ranking holds about 1,000 compounds; the median of “cFRET/donor change relative to DMSO, normalised to beta-lapachone positive control (supercomplex I-IV assembly)” is about 0.18, and the lowest 2% start at about -1. The list shows a part of the results.

Tested on: C2C12 (NDUFB8-AcGFP / COX8A-DsRed-Monomer FRET reporter)
Assay: cFRET/donor change relative to DMSO, normalised to beta-lapachone positive control (supercomplex I-IV assembly) (fraction of beta-lapachone effect); higher = more respiratory supercomplex assembly
Details: 40 µM; 24 h
Experimental: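 Cells were treated with 40 uM compound for 24 h and imaged on an IN Cell Analyzer 6000. Corrected FRET was divided by donor signal (cFRET/donor) and measured in two replicate experiments. The score is (mean cFRET/donor of compound - mean DMSO) / (mean beta-lapachone 40 uM - mean DMSO). Compounds flagged for prominent cell death, abnormal morphology or decreased cell number were excluded.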

Structure (SMILES) | cFRET/donor change
C[C@H]1C[C@H]2[C@@H]3CCC4=CC(=O)C=C[C@]4(C)[C@@]3(Cl)[C@@H](O)C[C@]2(C)[C@@]1(O)C(=O)CO [Beclomethasone] | -0.266
CC(=O)OCC(=O)[C@@]1(O)CC[C@H]2[C@@H]3CCC4=CC(=O)CC[C@]4(C)[C@H]3C(=O)C[C@@]21C [Cortisone 21-acetate] | 0.339
O=C1c2ccccc2C(=O)c2c(NCCc3ccc(O)cc3)ccc(NCCc3ccc(O)cc3)c21 | -1.29
NC(=O)c1ncn([C@@H]2O[C@H](CO)[C@@H](O)[C@H]2O)c1O [Mizoribine] | 0.153
Nc1ncnc2c1ncn2[C@@H]1O[C@H](COP(=O)(O)CP(=O)(O)OP(=O)(O)O)[C@H](O)C1O (stereo partly drawn) [alpha,beta-Methylene adenosine 5'-triphosphate dilithium] | 0.245
Cc1ccc(C(=O)Nc2ccc(S(=O)(=O)O)c3cc(S(=O)(=O)O)cc(S(=O)(=O)O)c23)cc1NC(=O)c1cccc(NC(=O)Nc2cccc(C(=O)Nc3cc(C(=O)Nc4ccc(S(=O)(=O)O)c5cc(S(=O)(=O)O)cc(S(=O)(=O)O)c45)ccc3C)c2)c1 [Suramin sodium salt] | -0.0424
C=CCN1CCc2c(cc(O)c(O)c2Cl)C(c2ccccc2)C1 (racemic) [(±)-Chloro-APB hydrobromide] | 2.52
CNCCC=C1c2ccccc2CCc2ccccc21 [Nortriptyline hydrochloride] | 0.236
O=c1onc2n1-c1cc(Br)ccc1OC2 | 0.326
Cc1ccc(/C(=C\CN2CCCC2)c2ccccn2)cc1 [Triprolidine hydrochloride] | 0.195
C[C@]12C=CC(=O)C=C1CC[C@@H]1C2=CC[C@]2(C)[C@@H](C(=O)CN3CCN(c4cc(N5CCCC5)nc(N5CCCC5)n4)CC3)CC[C@@H]12 | -1.85
O=C(O)C1=CCNCC1 [Isoguvacine hydrochloride] | -0.33
CCn1cc(C(=O)O)c(=O)c2cc(F)c(N3CCNC(C)C3)c(F)c21 (stereo unspecified) [Lomefloxacin hydrochloride] | 0.361
NC(=O)c1cc[n+](CC2=C(C(=O)O)N3C(=O)[C@@H](NC(=O)C(c4ccccc4)S(=O)(=O)[O-])[C@H]3SC2)cc1 (stereo partly specified) [Cefsulodin sodium salt hydrate] | 0.575
CS(=O)(=O)Nc1ccc([N+](=O)[O-])cc1Oc1ccccc1 [Nimesulide] | 0.334
O=c1ccc2c(OCCCCc3ccccc3)c3ccoc3cc2o1 [Psora-4] | 0.396
CCCCCCCCCCC(C)(C)C(=O)Nc1c(OC)cc(OC)cc1OC | 0.904
Cn1c(=O)c2[nH]c(-c3ccc(S(=O)(=O)O)cc3)nc2n(C)c1=O [8-(p-Sulfophenyl)theophylline] | 0.086
C[C@@H]1O[C@@H]1P(=O)(O)O [Phosphomycin disodium] | -0.0803
CCN(CC)CCCC(C)Nc1c2ccc(Cl)cc2nc2ccc(OC)cc12 (stereo unspecified) [Quinacrine dihydrochloride] | -4.52
CN(CCOc1ccc(NS(C)(=O)=O)cc1)CCc1ccc(NS(C)(=O)=O)cc1 [Dofetilide] | 0.532
COc1ccc2cccc(CCNC(C)=O)c2c1 [Agomelatine] | 0.0655
CC1=C(C)C(=O)C(CCCCC#CCCCC#CCO)=C(C)C1=O | 0.121

Quoted at random: 3 compounds from above.
Structure (SMILES) | cFRET/donor change
Cc1ccc(/C(=C\CN2CCCC2)c2ccccn2)cc1 [Triprolidine hydrochloride] | 0.195
CC(=O)OCC(=O)[C@@]1(O)CC[C@H]2[C@@H]3CCC4=CC(=O)CC[C@]4(C)[C@H]3C(=O)C[C@@]21C [Cortisone 21-acetate] | 0.339
C=CCN1CCc2c(cc(O)c(O)c2Cl)C(c2ccccc2)C1 (racemic) [(±)-Chloro-APB hydrobromide] | 2.52

Going on with the list:

Structure (SMILES) | cFRET/donor change
Nc1nc2ccc(Cl)cc2n2c(-c3ccccc3)nnc12 | -1.23
CNc1cc(NS(=O)(=O)c2ccc(N)cc2)nc(NC)n1 [Ro 04-6790 dihydrochloride] | -0.245
CCOC(=O)[C@H](CCc1ccccc1)N[C@@H](C)C(=O)N1[C@H](C(=O)O)C[C@H]2CCCC[C@@H]21 [Trandolapril] | -0.23
CNC[C@H](O)c1cccc(O)c1 [Phenylephrine hydrochloride] | 0.454
CC(=O)NNC(=O)N1Cc2ccccc2Oc2ccc(Cl)cc21 | 0.188
CC[C@H]1OC(=O)[C@H](C)[C@@H](O[C@H]2C[C@@](C)(OC)[C@@H](O)[C@H](C)O2)[C@H](C)[C@@H](O[C@@H]2O[C@H](C)C[C@H](NC)[C@H]2O)[C@](C)(O)C[C@@H](C)CN(C)[C@H](C)[C@@H](O)[C@]1(C)O | 0.325
CCCCCCN(CCCCCC)C(=O)Cc1c(-c2ccc(F)cc2)[nH]c2ccccc12 [N,N-Dihexyl-2-(4-fluorophenyl)indole-3-acetamide] | -0.00542
CCN(CC)CCNC(=O)c1ccc(NC(C)=O)cc1 [N-Acetylprocainamide hydrochloride] | 0.203
[Cl-].[Li+] [Lithium Chloride] | 0.000589
O=C(O)CN(CCOCCOCCN(CC(=O)O)CC(=O)O)CC(=O)O | 0.309
CNC(=C[N+](=O)[O-])NCCSCc1ccc(CN(C)C)o1 [Ranitidine hydrochloride] | -0.00968
CC(C)C[C@H](NC(=O)[C@@H](O)[C@H](N)Cc1ccccc1)C(=O)O [Bestatin hydrochloride] | -0.00775
COC(=O)[C@H]1[C@H]2C[C@@H]3c4[nH]c5cc(OC)ccc5c4CCN3C[C@H]2C[C@@H](OC(=O)c2cc(OC)c(OC)c(OC)c2)[C@@H]1OC [Reserpine] | -0.411
CC(C)Cc1ccc([C@H](C)C(=O)O)cc1 [S(+)-Ibuprofen] | 0.234
O=c1[nH]cc(F)c(=O)[nH]1 [5-Fluorouracil] | 0.191
N=c1ccn2c(n1)O[C@H]1[C@H](O)[C@@H](CO)O[C@H]12 [Ancitabine hydrochloride] | -0.0397
C[N+](C)(C)CCO.[Br-] [Choline bromide] | 0.313
CC(=O)Oc1cc(C(F)(F)F)ccc1C(=O)O [Triflusal] | 0.114
C[C@@H](c1ncncc1F)[C@](O)(Cn1cncn1)c1ccc(F)cc1F [Voriconazole] | 0.181
O=C(O)Cc1ccccc1Nc1c(Cl)cccc1Cl [Diclofenac sodium] | 0.224
Cc1cccc(-c2[nH]c(C(C)(C)C)nc2-c2ccc3nccnc3c2)n1 | -0.172
COc1ccc(CCN(C)CCc2ccc(OC)c(OC)c2)cc1OC [YS-035 hydrochloride] | 0.59
CC[N+](CC)(CC)CC [Tetraethylammonium chloride] | 0.0424
